According to article PMC3547664:
Protein sequences can lack the tags named with them.

System: T1, PhoB (Bacteroides fragilis YCH46)
T1 sequence (looked up): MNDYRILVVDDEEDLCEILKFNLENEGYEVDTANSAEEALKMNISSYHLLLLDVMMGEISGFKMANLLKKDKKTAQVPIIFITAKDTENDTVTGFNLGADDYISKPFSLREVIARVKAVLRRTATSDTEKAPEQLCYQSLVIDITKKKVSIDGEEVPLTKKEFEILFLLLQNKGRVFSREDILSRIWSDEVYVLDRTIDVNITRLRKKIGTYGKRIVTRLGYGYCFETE
Experiment: EMSA
Conditions: PhoB 1.5 or 15 uM, 10 ng DNA, 10 mM MgCl2; EMSA: 50 mM Tris-HCl pH 7.5, 50 mM KCl, 10 mM MgCl2, 0.5 mM EDTA, 30 min at 25 C; 5% polyacrylamide gel. PS B and PS E promoter fragments; recombinant protein; residues 1-229; label: none (SYBR Green I stain); probe letters rebuilt from the primers and the genome

AACCTTGCTGCTGAACAGGCCGAATGCCTCGGTAAAAAGGAAAAGCACAATCAGCAGAATCGTAATACTCGTTACAAAACCGCTACAGGTCAATATTCCTTCTATAATTCTTTCAAAAACCTTCTTCATACCTTTTGATTTTCATGATGCAAAGAAACGGAGTAAGTATTAAGGAGGTGTGAATACGGTTTGAAGGAACTGTTTCAAACCTGTTACGTTTCTGTTACAAGACAAGATGCGGCACGTTTTGAAACAGGAATGTAACACGCTATTGCTTTATTTGCACATAAAATAGAATCCACCACAGGATTCACCACAGAGTACACAGAGTCTCGCAGAGAACACAGACTCTCGCAGAGAAATTCGTTTTCTCTAAAATACTGTAACAAAAGATTAAAGACCTGTGGAACTCTGTGTTACTCTGTGGTGAATCAAACTCAAAACTTAATCATATGAAAGTTAGAACTATCTTATTCGCCGCCCTCTCACTCGCAGCATTGCATGCCAACGCT (double strand) [pstC promoter fragment]
binding result: binds
